Assay [1] concerns the target HCoV-HKU1 spike protein (Sino Biological 40606-V08B) (HCoV-HKU1) (UniProt Q0ZME7). Description: bead flow cytometry, AUC minus CD4.
The target in assay [2] is HCoV-OC43 spike protein (HCoV-OC43) (UniProt P36334). Description: bead flow cytometry, AUC minus CD4.
In assay [3] the target is MERS-CoV spike protein (MERS-CoV) (UniProt K9N5Q8). Kind of assay: multiplex bead flow cytometry.
The target in assay [4] is SARS-CoV-1 spike protein, recombinant (SARS-CoV-1) (UniProt P59594). Description: multiplex bead flow cytometry.
Assay [5] concerns the target SARS-CoV-2 spike S2 subunit, recombinant (SARS-CoV-2) (UniProt P0DTC2). Kind of assay: bead flow cytometry, AUC minus CD4.
Assay [6] has the same target. Description: multiplex bead flow cytometry.
The target in assay [7] is MERS-CoV spike protein (MERS-CoV) (UniProt K9N5Q8). Description: bead flow cytometry, AUC minus CD4.

Chains of the proteins cited; added tags and fusions are not shown. Residues count along the entry.
UniProt P36334, residues 14-1297: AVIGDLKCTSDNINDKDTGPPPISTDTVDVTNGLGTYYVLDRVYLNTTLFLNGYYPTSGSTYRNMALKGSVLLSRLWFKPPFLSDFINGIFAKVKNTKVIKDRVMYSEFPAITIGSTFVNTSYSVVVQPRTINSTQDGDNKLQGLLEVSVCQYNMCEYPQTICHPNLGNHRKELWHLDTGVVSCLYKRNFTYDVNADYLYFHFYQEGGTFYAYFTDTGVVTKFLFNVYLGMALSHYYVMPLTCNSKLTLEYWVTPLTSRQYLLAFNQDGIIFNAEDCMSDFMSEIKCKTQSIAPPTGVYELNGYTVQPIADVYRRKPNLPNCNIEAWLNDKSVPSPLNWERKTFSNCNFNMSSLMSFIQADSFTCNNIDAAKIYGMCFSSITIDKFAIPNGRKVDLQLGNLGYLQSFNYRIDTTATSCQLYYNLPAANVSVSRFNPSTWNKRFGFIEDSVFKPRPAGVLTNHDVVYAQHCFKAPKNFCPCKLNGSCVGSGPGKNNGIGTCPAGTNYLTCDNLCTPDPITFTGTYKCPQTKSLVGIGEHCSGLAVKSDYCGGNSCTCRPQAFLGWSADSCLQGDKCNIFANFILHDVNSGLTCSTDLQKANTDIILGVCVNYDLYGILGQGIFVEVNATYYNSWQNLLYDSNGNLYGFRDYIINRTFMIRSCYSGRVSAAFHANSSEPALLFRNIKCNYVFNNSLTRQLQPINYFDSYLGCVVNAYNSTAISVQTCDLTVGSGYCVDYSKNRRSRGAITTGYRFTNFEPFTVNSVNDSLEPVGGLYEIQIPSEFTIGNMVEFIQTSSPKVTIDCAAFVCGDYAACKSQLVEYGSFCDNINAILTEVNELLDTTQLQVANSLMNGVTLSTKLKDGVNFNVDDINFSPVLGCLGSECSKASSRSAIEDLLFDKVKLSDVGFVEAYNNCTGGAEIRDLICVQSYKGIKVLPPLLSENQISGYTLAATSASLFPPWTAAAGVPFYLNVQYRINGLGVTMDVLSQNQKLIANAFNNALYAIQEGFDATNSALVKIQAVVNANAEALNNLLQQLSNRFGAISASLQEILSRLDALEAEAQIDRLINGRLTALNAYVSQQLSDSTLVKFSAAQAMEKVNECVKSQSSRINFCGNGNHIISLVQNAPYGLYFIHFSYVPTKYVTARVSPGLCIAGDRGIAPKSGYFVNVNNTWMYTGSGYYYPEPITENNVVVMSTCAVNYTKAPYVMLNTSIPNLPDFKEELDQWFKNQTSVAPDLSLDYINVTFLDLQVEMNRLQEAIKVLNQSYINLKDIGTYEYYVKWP
UniProt K9N5Q8, residues 18-1291: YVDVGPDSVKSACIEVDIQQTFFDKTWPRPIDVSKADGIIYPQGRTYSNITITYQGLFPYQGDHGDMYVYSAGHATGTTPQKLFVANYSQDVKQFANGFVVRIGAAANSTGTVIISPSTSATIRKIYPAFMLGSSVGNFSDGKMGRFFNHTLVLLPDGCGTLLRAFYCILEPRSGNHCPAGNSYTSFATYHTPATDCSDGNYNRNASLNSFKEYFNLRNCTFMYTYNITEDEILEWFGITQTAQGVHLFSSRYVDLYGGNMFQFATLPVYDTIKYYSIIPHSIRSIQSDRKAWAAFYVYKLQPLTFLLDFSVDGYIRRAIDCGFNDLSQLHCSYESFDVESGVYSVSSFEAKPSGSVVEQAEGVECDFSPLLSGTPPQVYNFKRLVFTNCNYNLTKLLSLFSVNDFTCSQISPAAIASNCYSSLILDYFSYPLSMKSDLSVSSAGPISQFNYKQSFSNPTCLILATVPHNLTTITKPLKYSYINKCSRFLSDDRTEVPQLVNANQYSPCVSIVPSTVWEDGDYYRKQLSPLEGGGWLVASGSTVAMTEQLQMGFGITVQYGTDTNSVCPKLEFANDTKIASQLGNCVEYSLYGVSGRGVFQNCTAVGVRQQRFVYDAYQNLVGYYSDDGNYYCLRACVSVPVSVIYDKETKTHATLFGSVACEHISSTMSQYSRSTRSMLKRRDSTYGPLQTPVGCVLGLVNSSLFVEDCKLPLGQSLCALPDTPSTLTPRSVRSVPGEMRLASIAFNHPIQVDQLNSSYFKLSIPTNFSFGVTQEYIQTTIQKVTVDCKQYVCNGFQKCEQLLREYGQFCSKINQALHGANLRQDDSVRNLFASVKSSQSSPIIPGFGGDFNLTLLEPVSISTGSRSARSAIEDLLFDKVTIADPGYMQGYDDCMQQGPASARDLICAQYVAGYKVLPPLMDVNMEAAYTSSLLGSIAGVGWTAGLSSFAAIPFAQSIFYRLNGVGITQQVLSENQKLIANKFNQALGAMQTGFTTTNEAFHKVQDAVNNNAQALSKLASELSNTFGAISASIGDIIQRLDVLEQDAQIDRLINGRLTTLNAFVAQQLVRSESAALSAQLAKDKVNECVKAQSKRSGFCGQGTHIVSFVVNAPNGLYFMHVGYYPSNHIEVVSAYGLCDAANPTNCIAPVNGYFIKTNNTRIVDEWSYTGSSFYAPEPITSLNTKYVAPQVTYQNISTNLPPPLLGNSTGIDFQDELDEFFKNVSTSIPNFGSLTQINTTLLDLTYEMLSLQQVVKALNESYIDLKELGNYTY

Results are given in words; binding and its absence hold for the method and conditions named. Some results given as binding are weak or reduced against the parent protein; the word gives no strength.

B1: COV57-01 (antibody, V domains shown)
VH: QVQLVESGGGVVQPGRSLRLSCTVSGFTFNNYGMHWVRQAPGKGLEWLAVISYEGSKKFYADSLEGRFSISRDSSKNTLYLQMNSLTIEDTAVYFCAKRNSIFWFGEGRKDAFDVWGQGTRVIVSS
VL: DIQLTQSPSSLSASVGDRVTITCRASQTVDNYLNWYQQLPGKAPKLLIHTASTLQSGVPSRFSATSSGTDFTLTISGLQPDDSATYFCQQSYSVPLTFGGGTKVEIKV
On to B1, for which the binding entry in assay [1] and in assay [2] was “binds” in each case.

B2: COV44-79 (antibody, V domains shown)
VH: QVQLVESGGGVVQPGRSLRLSCAASGLTFSGYAMHWVRQAPGKGLEWVAVISRDARNKYYADSVKGRFTISRDNSKKTVYLEMNSLRVEDTAVYYCAILIIPGITEPGSPDALDIWGQGTMVSVSS
VL: DIQMTQSPSSMSASVGDRVTITCRASQDISKWLAWYQQRPGKAPKLLIYAASSLQSGVPSRFSGSGSGTDFTLTISSLQPEDFATYYCQQASSFPWSITFGQGTRLEIR
As to B2, the binding entry in assay [3] and in assay [4] was “binds” each time.

B3: COV44-26 (antibody, V domains shown)
VH: QVQLVQSGAEVKKPGASVKVSCKASGYTFSNFYMNWVRQAPGQGLEWVGLISPSAGYTAYAQMFQGRVTMTRDTSTSTVYMELSSLRSEDTAVYYCARVAVAGPNDYWGQGTLVTVSS
VL: EIVLTQSPGTLSLSPGERATLSCRASQSISSSYLAWYQQKPGQAPRLVIFAASTRATGIPDRFSGSGSGTDFTLTITRLEPEDFALYYCQHYRSSPPLWTFGQGTKVEIR
As to B3, the binding entry in assay [4] is on record as “binds”.

B4: COV72-37 (antibody, V domains shown)
VH: QVQLVQSGAEVKKPAASVKVSCKASGDTFSSHYMHWVRQAPGQGPEWMGIINPSGSGTAYGQKFQGRLTMTRDTSTSTVYMELSSLTSDDTAVYYCGGGSGGLFAYWGQGTLVTVSS
VL: EIVLTQSPGTLSLSPGERATLSCRASQIVRSNYLAWYQQKPGQAPRLLIYGASSRATGTPDRFSGGGSGTDFTLTINRLEPEDFAVYYCLQYDSSPPTYIFGQGTKLEIK
For the molecule B4, the binding result in assay [5] and in assay [6] was “binds” each time.

B5: COV89-22 (antibody, V domains shown)
VH: QEQLVQSGAEVKKPGASVKVSCKSSGFTFSYFYLHWVRQAPGQGLEWMGIINPRGDGTRYAQKFQGRVTMTRDASTGTLYMELRSLRSEDTAVYYCARGADHGAFDIWGQGTMVTVSS
VL: EIVLTQSPGTLSLSPGERATLSCRASQSVRRNYFAWYQQKRGQAPRLLIYDASTRATGIPDRFSGSGSGTDFTLTISRLEPEDFAVYYCQQYDSSPPMYIFGQGTKLEIK
B5: the binding result in assay [7], in assay [5], in assay [6] and in assay [4] was “binds” throughout.

B6: COV44-62 (antibody, V domains shown)
VH: QMQLMQSGAEVKKPGASVTVSCKASGDTFSDYRIHWVRQAPGQGLEWMGRMNPKSGDTNFAQKFQGRVTMTRDMSINTAYMTLSGLTFDDTALYYCASLLIVGGFDPLDDFEVWGQGTMVTISS
VL: QSALTQPPSASGSPGQSVTISCSGTSSDVGGYNFVSWYQHHPGKAPKILIYEVTKRPSGVPDRFSGSKSGNTASLTVSGLQAEDEADYYCSSYGGTNNLLFGGGTKLTVL
Consider B6, for which the binding result in assay [3] and in assay [4] was “binds” each time.

The record behind these values is patent US20250145690A1.
